Values from PubChem BioAssay AID652272 (Drosophila RNAi Screening Center, 2013)

Test: 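Genes whose knock-down decreases or increases Hedgehog reporter output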 (primary screen)
Cells: Drosophila clone 8 (Cl8) cells
Knock-down reagent: long dsRNA against Drosophila genes
Measurement: 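Firefly light from a Hedgehog-responsive ptc promoter reporter and Renilla reference light, both read on a plate reader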
Reading the numbers: firefly Hh reporter signal: higher = more ptc reporter light; Renilla reference signal: higher = more Renilla control light
Hit rule: 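Called a hit if the two-replicate mean z-score lies below -2 or above +3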
Meaning of the calls: active = hit: reporter lowered or raised; inactive = not a hit
In all, the deposit lists about 21,000 reagents; this is a random part of those that have a named target and a result. Of all reagents, 503 (2.4%) got an active call. 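Raw plate light values, not normalised; calls rest on replicate z-scores that were not deposited; hits include reporter decreases as well as increases.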 Not stated in the record: the amount of reagent, the time to read-out.

{"gene knocked down":"CG15236","dsRNA":"DRSC04970","firefly Hh reporter signal, replicate 1":1.46e5,"firefly Hh reporter signal, replicate 2":79600,"Renilla reference signal, replicate 1":3441,"Renilla reference signal, replicate 2":5835,"call":"inactive"}
{"gene knocked down":"mthl9","dsRNA":"DRSC08506","firefly Hh reporter signal, replicate 1":82833,"firefly Hh reporter signal, replicate 2":48297,"Renilla reference signal, replicate 1":2963,"Renilla reference signal, replicate 2":3545,"call":"inactive"}
{"gene knocked down":"yellow-f","dsRNA":"DRSC15348","firefly Hh reporter signal, replicate 1":97528,"firefly Hh reporter signal, replicate 2":68444,"Renilla reference signal, replicate 1":2098,"Renilla reference signal, replicate 2":1620,"call":"inactive"}
{"gene knocked down":"CG18636","dsRNA":"DRSC02685","firefly Hh reporter signal, replicate 1":1.04e5,"firefly Hh reporter signal, replicate 2":53232,"Renilla reference signal, replicate 1":2854,"Renilla reference signal, replicate 2":5275,"call":"inactive"}
{"gene knocked down":"Pglym87","dsRNA":"DRSC15252","firefly Hh reporter signal, replicate 1":1.54e5,"firefly Hh reporter signal, replicate 2":99639,"Renilla reference signal, replicate 1":6688,"Renilla reference signal, replicate 2":4167,"call":"inactive"}
{"gene knocked down":"NTPase","dsRNA":"DRSC00761","firefly Hh reporter signal, replicate 1":52928,"firefly Hh reporter signal, replicate 2":83628,"Renilla reference signal, replicate 1":2284,"Renilla reference signal, replicate 2":3163,"call":"inactive"}
{"gene knocked down":"CG14131","dsRNA":"DRSC10135","firefly Hh reporter signal, replicate 1":37142,"firefly Hh reporter signal, replicate 2":22841,"firefly Hh reporter signal, replicate 3":46304,"Renilla reference signal, replicate 1":3595,"Renilla reference signal, replicate 2":4297,"call":"inactive"}
{"gene knocked down":"kud","dsRNA":"DRSC11086","firefly Hh reporter signal, replicate 1":1.62e5,"Renilla reference signal, replicate 1":6763,"Renilla reference signal, replicate 2":4076,"call":"inactive"}
{"gene knocked down":"rtet","dsRNA":"DRSC14160","firefly Hh reporter signal, replicate 1":1.69e5,"firefly Hh reporter signal, replicate 2":1.23e5,"Renilla reference signal, replicate 1":6683,"Renilla reference signal, replicate 2":4969,"call":"inactive"}
{"gene knocked down":"Spx","dsRNA":"DRSC18720","firefly Hh reporter signal, replicate 1":41781,"firefly Hh reporter signal, replicate 2":1.16e5,"Renilla reference signal, replicate 1":2144,"Renilla reference signal, replicate 2":6760,"call":"inactive"}
{"gene knocked down":"ND-B14.5AL","dsRNA":"DRSC11795","firefly Hh reporter signal, replicate 1":79437,"firefly Hh reporter signal, replicate 2":94412,"Renilla reference signal, replicate 1":3076,"Renilla reference signal, replicate 2":1060,"call":"inactive"}
{"gene knocked down":"CG12464","dsRNA":"DRSC06156","firefly Hh reporter signal, replicate 1":62873,"firefly Hh reporter signal, replicate 2":51924,"Renilla reference signal, replicate 1":1545,"Renilla reference signal, replicate 2":4076,"call":"inactive"}
{"gene knocked down":"CG11345","dsRNA":"DRSC08176","firefly Hh reporter signal, replicate 1":54384,"firefly Hh reporter signal, replicate 2":71365,"Renilla reference signal, replicate 1":4672,"Renilla reference signal, replicate 2":4488,"call":"inactive"}
{"gene knocked down":"Jhbp14","dsRNA":"DRSC01988","firefly Hh reporter signal, replicate 1":1.65e5,"firefly Hh reporter signal, replicate 2":58950,"Renilla reference signal, replicate 1":4056,"Renilla reference signal, replicate 2":4915,"call":"inactive"}
{"gene knocked down":"Cul6","dsRNA":"DRSC09830","firefly Hh reporter signal, replicate 1":90344,"firefly Hh reporter signal, replicate 2":53472,"Renilla reference signal, replicate 1":3703,"Renilla reference signal, replicate 2":1824,"call":"inactive"}
{"gene knocked down":"Ama","dsRNA":"DRSC12489","firefly Hh reporter signal, replicate 1":79609,"firefly Hh reporter signal, replicate 2":50407,"Renilla reference signal, replicate 1":3307,"Renilla reference signal, replicate 2":1864,"call":"inactive"}
{"gene knocked down":"Men-b","dsRNA":"DRSC16736","firefly Hh reporter signal, replicate 1":84374,"firefly Hh reporter signal, replicate 2":80547,"Renilla reference signal, replicate 1":2871,"Renilla reference signal, replicate 2":2172,"call":"inactive"}
{"gene knocked down":"CG12299","dsRNA":"DRSC02158","firefly Hh reporter signal, replicate 1":46587,"firefly Hh reporter signal, replicate 2":51349,"Renilla reference signal, replicate 1":1523,"Renilla reference signal, replicate 2":2141,"call":"inactive"}
{"gene knocked down":"Cbl","dsRNA":"DRSC10764","firefly Hh reporter signal, replicate 1":56829,"firefly Hh reporter signal, replicate 2":54017,"Renilla reference signal, replicate 1":6316,"Renilla reference signal, replicate 2":3936,"call":"inactive"}
{"gene knocked down":"Cbl","dsRNA":"DRSC11111","firefly Hh reporter signal, replicate 1":25133,"firefly Hh reporter signal, replicate 2":39126,"Renilla reference signal, replicate 1":3073,"Renilla reference signal, replicate 2":2673,"call":"inactive"}
{"gene knocked down":"CG5608","dsRNA":"DRSC15841","firefly Hh reporter signal, replicate 1":1.68e5,"firefly Hh reporter signal, replicate 2":1.43e5,"Renilla reference signal, replicate 1":7357,"Renilla reference signal, replicate 2":5357,"call":"inactive"}
